Test in all cases: two-hybrid; HIS3 reporter; yeast strain HFY7c cotransformed with pGAD424 (GAL4-AD) and pGBT9 (GAL4-BD) fusions; spotted on -Leu-Trp-His plates without and with 3-AT, 30 °C, 3 to 4 days
Assay [1] has as its target FliC (Escherichia coli) (UniProt P04949).
Assay [2] concerns the target T1, FlhD (Escherichia coli) (UniProt P0A8S9).
T1 sequence: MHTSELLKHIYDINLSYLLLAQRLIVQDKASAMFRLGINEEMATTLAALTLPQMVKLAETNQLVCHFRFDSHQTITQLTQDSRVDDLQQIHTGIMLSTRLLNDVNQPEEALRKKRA

Protein sequences, listed by entry. Tags and fused reporters are not part of them.
UniProt P04949: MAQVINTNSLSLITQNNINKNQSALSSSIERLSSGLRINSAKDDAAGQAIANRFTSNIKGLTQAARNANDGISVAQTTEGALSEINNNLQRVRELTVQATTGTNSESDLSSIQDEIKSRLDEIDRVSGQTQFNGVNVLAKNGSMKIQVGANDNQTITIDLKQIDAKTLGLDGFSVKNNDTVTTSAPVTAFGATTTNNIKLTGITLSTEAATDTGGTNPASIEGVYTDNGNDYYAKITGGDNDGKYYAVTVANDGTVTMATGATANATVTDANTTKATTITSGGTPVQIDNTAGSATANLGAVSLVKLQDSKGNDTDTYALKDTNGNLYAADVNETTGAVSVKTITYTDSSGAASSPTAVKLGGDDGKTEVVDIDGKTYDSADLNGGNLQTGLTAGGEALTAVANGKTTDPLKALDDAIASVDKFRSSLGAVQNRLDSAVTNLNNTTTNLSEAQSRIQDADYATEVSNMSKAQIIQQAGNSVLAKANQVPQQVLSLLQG
UniProt P0AEM6: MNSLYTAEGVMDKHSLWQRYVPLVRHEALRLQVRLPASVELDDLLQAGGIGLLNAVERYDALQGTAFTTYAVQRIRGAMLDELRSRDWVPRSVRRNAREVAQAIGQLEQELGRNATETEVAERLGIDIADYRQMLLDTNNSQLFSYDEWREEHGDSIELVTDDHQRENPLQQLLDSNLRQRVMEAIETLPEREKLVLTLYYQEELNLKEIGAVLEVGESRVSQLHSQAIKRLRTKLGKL
UniProt P0AEZ3: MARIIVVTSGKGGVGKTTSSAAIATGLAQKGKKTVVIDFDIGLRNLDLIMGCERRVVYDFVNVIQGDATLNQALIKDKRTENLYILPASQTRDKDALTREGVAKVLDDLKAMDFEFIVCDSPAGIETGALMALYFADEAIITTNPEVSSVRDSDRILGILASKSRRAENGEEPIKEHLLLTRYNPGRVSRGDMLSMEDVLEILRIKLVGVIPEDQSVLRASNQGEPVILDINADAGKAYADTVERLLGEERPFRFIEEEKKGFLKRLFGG

Assay [3] concerns the target T2, AtoC (Escherichia coli K-12) (UniProt Q06065).
T2 sequence: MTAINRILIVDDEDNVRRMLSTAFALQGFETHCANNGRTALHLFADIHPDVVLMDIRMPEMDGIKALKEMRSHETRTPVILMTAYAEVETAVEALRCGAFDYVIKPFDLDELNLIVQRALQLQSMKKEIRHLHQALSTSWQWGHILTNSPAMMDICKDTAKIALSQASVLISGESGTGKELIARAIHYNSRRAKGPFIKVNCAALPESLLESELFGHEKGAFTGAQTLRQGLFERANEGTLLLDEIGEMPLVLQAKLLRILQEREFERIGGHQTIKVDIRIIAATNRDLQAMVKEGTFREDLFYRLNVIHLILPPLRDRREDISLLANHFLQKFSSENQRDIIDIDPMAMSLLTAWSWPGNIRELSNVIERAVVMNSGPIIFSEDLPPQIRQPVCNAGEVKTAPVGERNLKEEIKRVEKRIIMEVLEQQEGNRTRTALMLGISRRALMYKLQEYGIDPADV

The target of assay [4] is T3, FlhC (Escherichia coli) (UniProt P0ABY7).
T3 sequence: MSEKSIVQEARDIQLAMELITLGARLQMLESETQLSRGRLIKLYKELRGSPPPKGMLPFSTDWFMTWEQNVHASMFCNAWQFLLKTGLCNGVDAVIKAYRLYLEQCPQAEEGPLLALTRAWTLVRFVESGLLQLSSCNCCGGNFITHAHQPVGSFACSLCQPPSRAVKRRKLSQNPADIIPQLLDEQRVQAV

In assay [5] the target is T4, AtoS (Escherichia coli K-12) (UniProt Q06067).
T4 sequence: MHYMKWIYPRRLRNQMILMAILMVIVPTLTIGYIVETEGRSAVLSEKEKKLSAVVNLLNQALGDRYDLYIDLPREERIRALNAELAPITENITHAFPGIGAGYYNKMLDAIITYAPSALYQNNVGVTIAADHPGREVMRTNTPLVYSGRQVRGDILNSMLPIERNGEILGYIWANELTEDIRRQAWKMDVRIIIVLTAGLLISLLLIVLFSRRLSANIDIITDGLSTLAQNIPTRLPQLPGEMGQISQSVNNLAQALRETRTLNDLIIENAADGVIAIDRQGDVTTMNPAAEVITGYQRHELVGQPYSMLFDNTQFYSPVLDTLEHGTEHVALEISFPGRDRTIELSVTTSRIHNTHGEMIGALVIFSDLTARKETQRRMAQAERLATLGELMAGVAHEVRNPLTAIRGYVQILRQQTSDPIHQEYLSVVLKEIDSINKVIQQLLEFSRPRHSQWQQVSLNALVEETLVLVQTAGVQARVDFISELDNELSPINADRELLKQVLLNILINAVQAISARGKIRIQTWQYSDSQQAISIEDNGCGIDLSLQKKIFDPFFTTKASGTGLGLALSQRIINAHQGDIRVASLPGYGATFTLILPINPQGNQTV

Assay [6] concerns the target FliA (Escherichia coli) (UniProt P0AEM6).
Assay [7] has as its target T1, FlhD (Escherichia coli). This is another data set of the same source.
For assay [8], the target named is T3, FlhC (Escherichia coli). The source holds these as a separate data set.
The target of assay [9] is FliC (Escherichia coli) (UniProt P04949). This is another data set of the same source.
Assay [10] concerns the target T2, AtoC (Escherichia coli K-12). The source holds these as a separate data set.
Assay [11] concerns the target T4, AtoS (Escherichia coli K-12). This is another data set of the same source.
Assay [12] concerns the target FliA (Escherichia coli) (UniProt P0AEM6). The source holds these as a separate data set.

Read-outs that look alike come from different tables or passages of the source. These are yes or no findings as the source states them, for the method shown. Some results given as binding are weak or reduced against the parent protein; the word gives no strength.

For five molecules, binding results are on record in PMC10963238, “The bacterial division protein MinDE has an independent function in flagellation” (The Journal of Biological Chemistry, 2024).

As for MinD (from UniProt P0AEZ3 1-270), the binding entry is “no binding” in [1]; “no binding” in assay [2]; “no binding” in [3]; “no binding” in [4]; “binds” in assay [5]; “no binding” in [6].
Regarding MinE (from UniProt P0A734 1-88), the binding entry in [1], in [2], in assay [3], in assay [4], in [5] and in [6] was “no binding” in each case.

B1: AtoS (protein, UniProt Q06067 1-608)
chain: T4 sequence
With B1, the binding result in assay [7] and in assay [8] was “no binding” each time.

B2: AtoC (protein, UniProt Q06065 1-461)
chain: T2 sequence
Consider B2, for which the binding result in assay [7] and in [8] was “no binding” throughout.

B3: MinC (protein, UniProt P18196 1-231)
chain: MSNTPIELKGSSFTLSVVHLHEAEPKVIHQALEDKIAQAPAFLKHAPVVLNVSALEDPVNWSAMHKAVSATGLRVIGVSGCKDAQLKAEIEKMGLPILTEGKEKAPRPAPTPQAPAQNTTPVTKTRLIDTPVRSGQRIYAPQCDLIVTSHVSAGAELIADGNIHVYGMMRGRALAGASGDRETQIFCTNLMAELVSIAGEYWLSDQIPAEFYGKAARLQLVENALTVQPLN
For B3, the binding result in [9], in assay [7], in [10], in assay [8], in assay [11] and in [12] was “no binding” each time.
